In PubChem BioAssay AID1671190 (National Center for Advancing Translational Sciences (NCATS), 2021):
Several values for one entry are separate records, joined by “and”; a condition that tells them apart may be missing. Identical values can stand only once. Among all 580,000 compounds or so, about 6,100 (1.1%) were called active. This list was built around the results that the source calls inconclusive (neither active nor inactive); the mix of calls is not that of the screen. The call rests on the fitted dose curve; in most records, active means well fitted inhibition curve with a large enough effect; inconclusive means small, poorly fitted or top-dose-only effect, or another doubt; inactive means no such curve, though single readings can be large or run the other way. Potencies of inconclusive entries are doubtful fits and often do not repeat.

Protein sequences, listed by entry. Tags and fused reporters are not part of them.
UniProt P18054, whole entry, looked up: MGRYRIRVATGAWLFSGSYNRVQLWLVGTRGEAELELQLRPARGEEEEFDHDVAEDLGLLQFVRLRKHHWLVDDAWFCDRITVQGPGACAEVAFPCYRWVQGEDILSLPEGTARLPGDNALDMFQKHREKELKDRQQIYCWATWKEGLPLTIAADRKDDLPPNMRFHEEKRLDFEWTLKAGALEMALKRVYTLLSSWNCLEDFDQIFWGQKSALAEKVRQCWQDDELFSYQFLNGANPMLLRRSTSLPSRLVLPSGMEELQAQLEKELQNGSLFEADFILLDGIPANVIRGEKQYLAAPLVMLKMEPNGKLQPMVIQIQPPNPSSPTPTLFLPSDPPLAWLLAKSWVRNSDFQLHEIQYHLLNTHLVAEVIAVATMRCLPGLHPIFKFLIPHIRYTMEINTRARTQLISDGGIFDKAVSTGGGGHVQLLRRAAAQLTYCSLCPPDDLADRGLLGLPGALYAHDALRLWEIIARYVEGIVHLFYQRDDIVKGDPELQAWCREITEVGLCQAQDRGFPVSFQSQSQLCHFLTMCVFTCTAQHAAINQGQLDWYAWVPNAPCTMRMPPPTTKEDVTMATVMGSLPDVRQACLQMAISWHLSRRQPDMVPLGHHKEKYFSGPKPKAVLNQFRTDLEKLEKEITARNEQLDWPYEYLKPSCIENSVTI

What follows are compounds tested against Polyunsaturated fatty acid lipoxygenase ALOX12 (Homo sapiens) (UniProt P18054) (assay: Primary qHTS assay for inhibitors of human arachidonate 12S-lipoxygenase (ALOX12): Round 2). Settings: purified 12hLO, xylenol orange hydroperoxide absorbance; activity change, negative = inhibition: at 108 µM (top of the series) unless noted.
Procedure, shortened: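 Hydroperoxide product was detected by ferrous iron/xylenol orange as the 573 to 405 nm absorbance ratio. Arachidonic acid at 40 uM (final) was turned over for 30 min at room temperature by 150 nM human 12hLO, pH 7.0 Hepes buffer, after 15 min compound preincubation.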
On the % scale 0 is the no-effect control and ±100 the full control effect; potency means the concentration at half of the fitted maximal effect.

Row | SMILES | activity change, negative = inhibition | Potency
1 | Cn1c(=O)c2nc(SCCC(=O)Nc3ccccc3)n(C)c2n(C)c1=O | inactive: -6% | 
2 | Cn1cnc(C(=O)N2CCN(C(=O)OC(C)(C)C)CC2)c1C(=O)N1CCN(C(=O)OC(C)(C)C)CC1 |  | inconclusive: 50.1 µM [inhibitor, partial curve, poor fit]
3 | Cc1nn(CCc2n[nH]c(=S)n2-c2ccc(F)c(Cl)c2)c(C)c1[N+](=O)[O-] |  | inconclusive: 44.7 µM [inhibitor, partial curve, poor fit]
4 | Cc1cc(SCC(=O)Nc2ccc3[nH]c(=O)[nH]c3c2)nc2ccccc12 |  | inconclusive: 5.62 µM [inhibitor, full curve, poor fit]
5 | CCc1ccccc1NC(=O)c1cc(S(=O)(=O)N(C)C)ccc1N1CCCC1 |  | inconclusive: 44.7 µM [inhibitor, partial curve, poor fit]
6 | CCOc1cc(=O)n2c(c1C(=O)Nc1ccc(Cl)c(F)c1)CCCC2 |  | inconclusive: 20 µM [inhibitor, full curve]
7 | O=C(Nc1cccc(C(F)(F)F)c1)c1nc2c(o1)CCN(Cc1ccccc1)CC2 |  | inconclusive: 17.8 µM [inhibitor, full curve, poor fit]
8 | CCc1n[nH]c(=S)n1/N=C/c1ccc(N(C)c2ccccc2)cc1 |  | inconclusive: 39.8 µM [inhibitor, partial curve, poor fit]
9 | Cc1nc2ccccc2nc(C)c1=NOCc1ccc(C#N)cc1 |  | inconclusive: 44.7 µM [inhibitor, partial curve, poor fit]
10 | Cc1cc(/C=C2/SC(=O)N(CC(=O)N3CCCC3)C2=O)c(C)n1C |  | inconclusive: 44.7 µM [inhibitor, partial curve, poor fit]
11 | CC(C)(C)c1ccc(-c2cc(C[C@H]3CNCC[C@H]3CC(=O)NC3CCCCC3)no2)cc1 |  | active: 31.6 µM
12 | C1=C(c2ccccc2)Nc2nnnn2C1c1cccs1 (stereo not given) | inactive: 424% | 
13 | C[C@@H](NCc1cc2ccccc2[nH]1)c1cccc2ccccc12 |  | inconclusive: 1.93 µM [inhibitor, single point]
14 | O=C(CCc1ccc(O)cc1)c1c(O)cc(O)cc1O[C@@H]1O[C@H](CO)[C@H](O)[C@H](O)[C@H]1O | inactive: -22.2% [at 57.4 µM] | 
15 | COCCCN1C(=O)C(O)=C(C(C)=O)C1c1cccc(F)c1 (stereo not given) |  | active: 7.94 µM
16 | CCc1cccc(NC(=O)c2c(C)oc3ncnc(N4CCCCC4)c23)c1 |  | inconclusive: 112 µM [inhibitor, partial curve, poor fit]
17 | COc1ccccc1C1=NOC(COc2ccc3c(C)cc(=O)oc3c2)C1 (stereo not given) |  | inconclusive: 126 µM [inhibitor, single point]
18 | O=C(Cc1ccc(Cl)cc1)N1CCC(c2n[nH]c(=O)n2Cc2ccc(F)cc2)CC1 |  | active: 14.1 µM
19 | c1ccc(C2Nc3cccc4cccc(c34)N2)cc1 |  | inconclusive: 8.91 µM [inhibitor, partial curve, poor fit]
20 | CCOc1ccc(-c2nc(C3CC(=O)N(Cc4ccccc4OC)C3)no2)cc1 (stereo not given) | inactive: 25.6% | 
21 | c1ccc2c(c1)oc1c(NCCCn3ccnc3)ncnc12 |  | inconclusive: 31.6 µM [inhibitor, partial curve, poor fit]
22 | O=C1CN(C(=O)COc2ccc(Cl)cc2Cl)C(c2ccc(F)cc2)c2cc(F)ccc2N1 (stereo not given) |  | inconclusive: 50.1 µM [inhibitor, partial curve, poor fit]

Row | SMILES | activity change, negative = inhibition | Potency
23 | O=C(Nc1cccc(F)c1)c1n[nH]c(=O)c2ccccc12 | inactive: 2.03% | 
24 | Fc1cccc(Cl)c1CSc1nnnn1-c1ccc2c(c1)OCO2 |  | inconclusive: 20 µM [inhibitor, full curve, poor fit]
25 | Cc1nn(-c2ccccc2)c(C)c1C(=O)OCC(=O)NCc1ccco1 |  | inconclusive: 10 µM [inhibitor, partial curve, poor fit]
26 | Nc1nc(C2C(=O)CCCC2=O)cs1 |  | inconclusive: 0.794 µM [inhibitor, full curve, poor fit]
27 | O=C(Nc1ccnn1C1CCN(Cc2ccc(OC(F)F)cc2)CC1)C1CCCC1 |  | inconclusive: 31.6 µM [inhibitor, partial curve, poor fit]
28 | CC(=O)N(C1=C(Cl)C(=O)c2ccccc2C1=O)C1CCCCC1 |  | active: 1.78 µM
29 | CCOCc1nc2nc(Cl)c(Cl)nc2[nH]1 |  | inconclusive: 56.2 µM [inhibitor, partial curve, poor fit]
30 | COc1ccc(-c2nc(C3CN(C(=O)Nc4cccc(F)c4)C3)no2)cc1 | inactive: 52.6% | 
31 | Oc1c(C(c2ccc(Cl)cc2)N2CCOCC2)sc2nc(-c3ccco3)nn12 (stereo not given) |  | inconclusive: 56.2 µM [inhibitor, partial curve, poor fit]
32 | O=C1NC[C@H](CCCCN2C[C@H](Cc3ccccc3)N(CCC3CCCCC3)C(=O)C2=O)N(CCc2ccc(O)cc2)C1=O |  | inconclusive: 44.7 µM [inhibitor, partial curve, poor fit]
33 | CC(CNc1nc2ccccc2n2cnnc12)c1ccccc1 (stereo not given) |  | inconclusive: 112 µM [inhibitor, single point]
34 | N#C/C(=C\c1ccc[nH]1)C(=O)NC1CC1 | inactive: 7.86% | 
35 | NC(=O)c1cc2c3ccccc3ccn2c1-c1ccccc1 |  | inconclusive: 39.8 µM [inhibitor, partial curve]
36 | NC(=O)C1CN(CC(=O)Nc2cccc(Cl)c2)c2ccccc2O1 (stereo not given) |  | inconclusive: 178 µM [inhibitor, partial curve, poor fit]
37 | Nc1nonc1C(=O)NCCNCc1cc(Br)ccc1OCc1ccccc1F |  | inconclusive: 44.7 µM [inhibitor, partial curve]
38 | O=S1(=O)CCC(N=Cc2cc(Br)ccc2O)C1 (stereo not given) |  | active: 28.2 µM
39 | O=C(NCc1ccccc1)c1ccc(-c2ccc(F)c(F)c2)c2ccoc12 |  | inconclusive: 44.7 µM [inhibitor, partial curve, poor fit]
40 | COc1cnc(-c2ccccn2)nc1Oc1ccc(Cl)cc1 | inactive: 2.07% | 
41 | S=C(NCc1ccccc1)N/N=C/c1cccnc1 | inactive: 6.75% | 
42 | O=C(NC1CCCCC1)c1cnc2c(c1)N([S+](=O)([O-])c1cccnc1)CCC2 |  | inconclusive: 112 µM [inhibitor, partial curve, poor fit]
43 | COc1cc(CNC(C)c2ccccc2)cc(Cl)c1OCC(=O)Nc1ccccc1 (stereo not given) |  | inconclusive: 44.7 µM [inhibitor, partial curve, poor fit]
44 | COC(=O)C1=C(C)OC(N)=C(C#N)C1c1ccc(-c2ccccc2)cc1 (stereo not given) |  | active: 35.5 µM

Row | SMILES | activity change, negative = inhibition | Potency
45 | Fc1cccc(CSc2nc(NCCc3ccccc3)c3ccccc3n2)c1 |  | inconclusive: 141 µM [inhibitor, partial curve, poor fit]
46 | COCCn1c(=S)[nH]c2cc(C(=O)NCC3CCCO3)ccc2c1=O (stereo not given) |  | inconclusive: 6.31 µM [inhibitor, full curve, poor fit]
47 | O=C(CCc1ncc(-c2ccc(F)cc2)o1)Nc1nccs1 | inactive: 31.5% | 
48 | Cc1ccc(S(=O)(=O)N(C)C2CCCc3ccccc32)cc1 (stereo not given) | inactive: 14.9% [at 176 µM] | 
49 | Cc1nc2cc(NC(=O)c3ccc(C)c(F)c3)ccc2o1 | inactive: 0% | 
50 | Cn1c2c(c(=O)n(C)c1=O)C(NC(=O)c1ccco1)(C(F)(F)F)C(=O)N2 (stereo not given) |  | inconclusive: 63.1 µM [inhibitor, partial curve, poor fit]
51 | CN(C)CCNC(=O)c1cccc(-c2cnc3c(NC=O)cc(/C=C/c4ccccc4)cn23)c1 |  | inconclusive: 44.7 µM [inhibitor, partial curve]
52 | O=c1c2nccnc2nc(SCc2ccccc2Cl)n1Cc1ccc2c(c1)OCO2 |  | inconclusive: 56.2 µM [inhibitor, partial curve, poor fit]
53 | CN(CC(=O)Nc1ccc(S(=O)(=O)N2CCCC2)cc1)CC(=O)Nc1ccc(F)c(F)c1F | inactive: 3.28% | 
54 | O=C(c1cccc(Cl)c1)N1CCCC2(Cc3ccccc3NC2=O)C1 (stereo not given) | inactive: 21.3% | 
55 | C[C@H](NC[C@H](O)CP(=O)(O)Cc1ccccc1)c1ccc(Cl)c(Cl)c1 |  | active: 20 µM and inconclusive: 50.1 µM [inhibitor, partial curve, poor fit]
56 | COc1ccc(S(=O)(=O)N2CCCC2C(=O)NCC(=O)Nc2cccc(Cl)c2C)cc1 (stereo not given) |  | inconclusive: 50.1 µM [inhibitor, partial curve, poor fit]
57 | COc1ccc(CC(=S)NCCc2ccccc2)cc1 |  | inconclusive: 35.5 µM [inhibitor, partial curve, poor fit]
58 | CCOC(=O)c1[nH]c2ccc(C)cc2c1NC(=O)CNC | inactive: -2.74% | 
59 | CN(C)CCNC=C(C(=O)Nc1ccc(Cl)cc1Cl)C(=O)Nc1ccc(Cl)cc1Cl |  | inconclusive: 39.8 µM [inhibitor, partial curve, poor fit]
60 | COc1ccc(S(=O)(=O)N2CCOCC2)cc1NC(=O)/C=C/c1ccc(F)cc1 | inactive: 15.7% | 
61 | Cc1cc2nc(C3CCCCC3)c(CC(C)(C)C)n2c(C)c1Br |  | inconclusive: 126 µM [inhibitor, single point]
62 | CCC(C)NC(=S)N(CCc1ccccc1)Cc1cc2cc(OC)c(OC)cc2[nH]c1=O (stereo not given) |  | inconclusive: 44.7 µM [inhibitor, partial curve, poor fit]
63 | CCn1cc(C(=O)O)c(=O)c2cc(F)c(N3CCN(S(=O)(=O)c4ccc(NC(=O)OC)cc4)CC3)cc21 | inactive: 11.7% | 
64 | CC(NC(=O)c1ccc2ccccc2n1)c1ccc(Cl)cc1 (stereo not given) |  | inconclusive: 39.8 µM [inhibitor, partial curve, poor fit]
65 | C=CCn1c(SCCCCCC)nc2c1c(=O)n(C)c(=O)n2C |  | inconclusive: 112 µM [inhibitor, single point]
